Results published in paper PMC5065127.
Where a chain is given by its changes, count along the chain named. These are yes or no findings as the source states them, for the method shown. Binding seen in cells or lysates may run through a third protein. Some binding calls cover weakened binding; strength is not graded here. Tags and fused reporters may be left off the sequences shown.

Sequences of proteins named here, by UniProt entry; tags and fusion partners are left off.
UniProt Q8IXI2: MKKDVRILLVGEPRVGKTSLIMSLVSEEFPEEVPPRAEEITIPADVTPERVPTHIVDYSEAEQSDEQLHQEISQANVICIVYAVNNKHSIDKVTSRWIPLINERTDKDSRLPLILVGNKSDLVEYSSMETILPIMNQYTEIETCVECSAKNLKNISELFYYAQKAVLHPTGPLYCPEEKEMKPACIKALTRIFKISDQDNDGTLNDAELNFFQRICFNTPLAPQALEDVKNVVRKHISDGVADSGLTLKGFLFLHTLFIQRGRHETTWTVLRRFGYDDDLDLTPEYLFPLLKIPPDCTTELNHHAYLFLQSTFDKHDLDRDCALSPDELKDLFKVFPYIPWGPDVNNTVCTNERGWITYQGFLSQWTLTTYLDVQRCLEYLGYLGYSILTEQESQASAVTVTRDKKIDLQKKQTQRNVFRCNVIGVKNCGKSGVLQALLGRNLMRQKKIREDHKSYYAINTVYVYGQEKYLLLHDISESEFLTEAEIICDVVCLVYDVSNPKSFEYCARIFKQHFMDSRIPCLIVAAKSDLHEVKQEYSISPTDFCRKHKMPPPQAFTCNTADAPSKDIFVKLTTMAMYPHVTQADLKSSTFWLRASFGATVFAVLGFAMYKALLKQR

Assays:
Test in all cases: co-IP; HEK293T cells co-expressing a Flag-tagged and an HA-tagged protein; precipitated with anti-HA or anti-Flag antibody; control IgG as negative control
[1] = target: T1, HA-tagged Miro (Drosophila) (Drosophila) (UniProt Q8IMX7)
T1 sequence: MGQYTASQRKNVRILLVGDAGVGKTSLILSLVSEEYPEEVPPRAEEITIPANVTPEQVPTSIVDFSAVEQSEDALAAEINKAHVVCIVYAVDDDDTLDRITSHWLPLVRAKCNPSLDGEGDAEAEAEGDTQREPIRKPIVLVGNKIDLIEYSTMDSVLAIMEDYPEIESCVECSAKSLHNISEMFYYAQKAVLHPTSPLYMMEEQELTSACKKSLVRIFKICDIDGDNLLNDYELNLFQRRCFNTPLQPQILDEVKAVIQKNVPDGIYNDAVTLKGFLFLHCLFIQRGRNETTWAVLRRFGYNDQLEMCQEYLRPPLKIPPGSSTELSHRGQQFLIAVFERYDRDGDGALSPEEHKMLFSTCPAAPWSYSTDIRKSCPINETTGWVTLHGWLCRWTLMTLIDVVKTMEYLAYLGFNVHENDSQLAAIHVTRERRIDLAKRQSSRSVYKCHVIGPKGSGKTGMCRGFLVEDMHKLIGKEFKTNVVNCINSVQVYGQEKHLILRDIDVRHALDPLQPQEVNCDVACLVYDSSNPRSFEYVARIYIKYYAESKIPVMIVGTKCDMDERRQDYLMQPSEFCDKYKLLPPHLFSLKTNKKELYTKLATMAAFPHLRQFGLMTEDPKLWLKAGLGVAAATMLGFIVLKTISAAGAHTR

[2] = target: T2, HA-tagged Miro20V (constitutively GTP-bound Miro mutant, A20V) (Drosophila) (UniProt Q8IMX7)
T2 sequence: T1 sequence with A20V

[3] = target: T3, HA-tagged Miro25N (constitutively GDP-bound Miro mutant, T25N) (Drosophila) (UniProt Q8IMX7)
T3 sequence: T1 sequence with T25N

[4] = target: T4, Flag-tagged Vimar (visceral mesodermal armadillo-repeats) (Drosophila) (UniProt A1Z6S7)
T4 sequence: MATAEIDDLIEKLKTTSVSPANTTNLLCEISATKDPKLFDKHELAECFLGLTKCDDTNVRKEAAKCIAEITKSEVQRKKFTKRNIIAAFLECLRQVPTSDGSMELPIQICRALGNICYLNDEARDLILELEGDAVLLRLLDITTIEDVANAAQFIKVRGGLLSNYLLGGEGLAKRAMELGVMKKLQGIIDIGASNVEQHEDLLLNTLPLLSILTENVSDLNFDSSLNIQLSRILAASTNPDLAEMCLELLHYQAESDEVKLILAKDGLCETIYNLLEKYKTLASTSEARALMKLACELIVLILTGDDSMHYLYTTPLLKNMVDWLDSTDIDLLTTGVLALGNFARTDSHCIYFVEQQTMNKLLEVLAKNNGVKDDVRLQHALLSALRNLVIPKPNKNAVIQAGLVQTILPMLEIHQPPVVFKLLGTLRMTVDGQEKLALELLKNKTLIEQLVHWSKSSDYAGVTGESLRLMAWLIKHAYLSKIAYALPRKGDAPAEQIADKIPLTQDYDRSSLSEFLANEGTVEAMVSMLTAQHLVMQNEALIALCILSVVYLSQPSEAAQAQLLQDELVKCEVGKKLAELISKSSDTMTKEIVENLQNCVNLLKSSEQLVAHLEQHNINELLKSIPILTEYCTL

[5] = target: HA-tagged Miro1 (UniProt Q8IXI2)

B1: Flag-tagged Vimar (visceral mesodermal armadillo-repeats) (protein, UniProt A1Z6S7 1-635)
chain: T4 sequence
Which results are given for B1?
binding [1]: binds; binding [2]: binds; binding [3]: binds

B2: HA-tagged Miro (Drosophila) (protein, UniProt Q8IMX7 1-652)
chain: T1 sequence
How did the binding [4] turn out when B2 was run?
Its binding is “binds”.

B3: Flag-tagged RAP1GDS1 (protein, UniProt P52306 1-607)
chain: MDNLSDTLKKLKITAVDKTEDSLEGCLDCLLQALAQNNTETSEKIQASGILQLFASLLTPQSSCKAKVANIIAEVAKNEFMRIPCVDAGLISPLVQLLNSKDQEVLLQTGRALGNICYDSHEGRSAVDQAGGAQIVIDHLRSLCSITDPANEKLLTVFCGMLMNYSNENDSLQAQLINMGVIPTLVKLLGIHCQNAALTEMCLVAFGNLAELESSKEQFASTNIAEELVKLFKKQIEHDKREMIFEVLAPLAENDAIKLQLVEAGLVECLLEIVQQKVDSDKEDDITELKTGSDLMVLLLLGDESMQKLFEGGKGSVFQRVLSWIPSNNHQLQLAGALAIANFARNDANCIHMVDNGIVEKLMDLLDRHVEDGNVTVQHAALSALRNLAIPVINKAKMLSAGVTEAVLKFLKSEMPPVQFKLLGTLRMLIDAQAEAAEQLGKNVKLVERLVEWCEAKDHAGVMGESNRLLSALIRHSKSKDVIKTIVQSGGIKHLVTMATSEHVIMQNEALVALALIAALELGTAEKDLESAKLVQILHRLLADERSAPEIKYNSMVLICALMGSECLHKEVQDLAFLDVVSKLRSHENKSVAQQASLTEQRLTVES
For B3, which binding [5] is on record?
The binding was “binds”.
